Measured values reported in patent publication US11672864B2, “Nanostructured gels capable of controlled release of encapsulated agents” (The Brigham and Women's Hospital, Inc., priority 2010, dated 2023).

Experiment: Loading efficiency in self-assembled SMS gels

CNCc1ccc(-c2[nH]c3cc(F)cc4c3c2CCNC4=O)cc1 [AGO14699]
Loading efficiency (camptothecin and AGO14699 co-loaded in sorbitan monostearate DMSO gels): ~15 % (wt/wt) and 15.10 % (wt/wt)

CC[C@@]1(O)C(=O)OCc2c1cc1n(c2=O)Cc2cc3ccccc3nc2-1 [Camptothecin]
Loading efficiency (SMS 4 % (wt/v) gel in DMSO, camptothecin starting 4 mg): 32.28 % (wt/wt)
Loading efficiency (SMS 4 % (wt/v) gel in DMSO, camptothecin starting 4 mg, listed as camptothecin (CPT)): ~30 % (wt/wt)
Loading efficiency (SMS 6 % (wt/v) gel in DMSO, camptothecin starting 4 mg): 30.02 % (wt/wt)
Loading efficiency (SMS 6 % (wt/v) gel in DMSO, camptothecin starting 4 mg, listed as camptothecin (CPT)): ~30 % (wt/wt)
Loading efficiency (SMS 8 % (wt/v) gel in DMSO, camptothecin starting 4 mg): 18.25 % (wt/wt)
Loading efficiency (SMS 12 % (wt/v) gel in DMSO, camptothecin starting 4 mg): 12.67 % (wt/wt)
Loading efficiency (SMS gels, SMS concentration not stated): 30 % (wt/wt)
Loading efficiency (camptothecin and AGO14699 co-loaded in sorbitan monostearate DMSO gels, listed as CPT): ~30 % (wt/wt)
Loading efficiency (camptothecin and AGO14699 co-loaded in sorbitan monostearate DMSO gels, listed as Camptothecin (CPT)): 30.02 % (wt/wt)

Values joined by “and” are separate entries in the source; they are usually repeats but may differ in a detail not shown here. Equal entries are not always repeated.
